The record followed here is PMC7468482.

No constants are given. Whether binding was seen depends on the method and setting.

The target in the test is MYC3 transcription factor (Arabidopsis thaliana), Q9FIP9. Kind of test: two-hybrid; GAL4 system, S. cerevisiae PJ69-4A co-transformed with bait and prey (pGAL424gate, pGBT9gate); 10- or 100-fold dilutions dropped on SD-Leu-Trp (control) and SD-Leu-Trp-His (selective); cultures grown at 30°C. The conditions noted are these: remark: other sources report otherwise.

B1: PEAPOD 1 (PPD1), wild type, Q7XA73 1-313 (protein)
chain: MDVGVSPAKSILAKPLKLLTEEDISQLTREDCRKFLKDKGMRRPSWNKSQAIQQVLSLKALYEPGDDSGAGIFRKILVSQPVNPPRVTTTLIEPSNELEACGRVSYPEDNGACHRMDSPRSAEFSGGSGHFVSEKDGHKTTISPRSPAETSELVGQMTIFYSGKVNVYDGIPPEKARSIMHFAANPIDLPENGIFASSRMISKLISKEKMMELPQKGLEKANSSRDSGMEGQANRKVSLQRYREKRKDRKFSKAKKCPGVASSSLEMFLNCQPRMKAAYSQNLGCTGSPLHSQSPESQTKSPNLSVDLNSEGI
On to B1, for which the binding entry is reported as “no binding”.

B2: PEAPOD 2 (PPD2), wild type, Q8GY55 1-315 (protein)
chain: MDVGVTTAKSILEKPLKLLTEEDISQLTREDCRKFLKEKGMRRPSWNKSQAIQQVLSLKALYEPGDDSGAGILRKILVSQPPNPPRVTTTLIEPRNELEACGRIPLQEDDGACHRRDSPRSAEFSGSSGQFVADKDSHKTVSVSPRSPAETNAVVGQMTIFYSGKVNVYDGVPPEKARSIMHFAANPIDLPENGIFASSRMISKPMSKEKMVELPQYGLEKAPASRDSDVEGQANRKVSLQRYLEKRKDRRFSKTKKAPGVASSSLEMFLNRQPRMNAAYSQNLSGTGHCESPENQTKSPNISVDLNSDLNSEDN
Regarding B2, the binding entry is given as “no binding”.
